Source: publication PMC11139976
No constants are given. Whether binding was seen depends on the method and setting. Binding seen in cells or lysates may run through a third protein. Some entries that bind do so weakly or less than the wild type.

The chains behind the UniProt entries cited, without tags or fusion partners.
UniProt P50750: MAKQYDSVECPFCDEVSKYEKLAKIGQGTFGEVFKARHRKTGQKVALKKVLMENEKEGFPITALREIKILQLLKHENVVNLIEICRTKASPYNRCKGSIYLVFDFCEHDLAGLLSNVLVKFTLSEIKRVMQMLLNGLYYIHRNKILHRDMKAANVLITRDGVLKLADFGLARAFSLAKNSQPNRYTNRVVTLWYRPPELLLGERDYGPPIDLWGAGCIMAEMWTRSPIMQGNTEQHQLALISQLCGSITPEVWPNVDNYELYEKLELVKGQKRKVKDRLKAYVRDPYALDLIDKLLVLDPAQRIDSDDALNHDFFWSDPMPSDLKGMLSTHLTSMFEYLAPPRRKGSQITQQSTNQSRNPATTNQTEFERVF
UniProt O94992: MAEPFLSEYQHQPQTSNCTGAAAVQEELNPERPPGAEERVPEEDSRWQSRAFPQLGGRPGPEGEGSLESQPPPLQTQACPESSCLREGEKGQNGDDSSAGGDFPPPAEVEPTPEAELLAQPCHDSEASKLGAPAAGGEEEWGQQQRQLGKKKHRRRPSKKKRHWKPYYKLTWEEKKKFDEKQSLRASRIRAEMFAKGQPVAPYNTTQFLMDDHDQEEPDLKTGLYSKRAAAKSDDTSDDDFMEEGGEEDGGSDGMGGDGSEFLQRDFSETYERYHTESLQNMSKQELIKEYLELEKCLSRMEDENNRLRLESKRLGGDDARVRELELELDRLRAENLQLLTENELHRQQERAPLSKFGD

B1: MEPCE (protein, UniProt Q7L2J0 1-689)
chain: MIEMAAEKEPFLVPAPPPPLKDESGGGGGPTVPPHQEAASGELRGGTERGPGRCAPSAGSPAAAVGRESPGAAATSSSGPQAQQHRGGGPQAQSHGEARLSDPPGRAAPPDVGEERRGGGGTELGPPAPPRPRNGYQPHRPPGGGGGKRRNSCNVGGGGGGFKHPAFKRRRRVNSDCDSVLPSNFLLGGNIFDPLNLNSLLDEEVSRTLNAETPKSSPLPAKGRDPVEILIPKDITDPLSLNTCTDEGHVVLASPLKTGRKRHRHRGQHHQQQQAAGGSESHPVPPTAPLTPLLHGEGASQQPRHRGQNRDAPQPYELNTAINCRDEVVSPLPSALQGPSGSLSAPPAASVISAPPSSSSRHRKRRRTSSKSEAGARGGGQGSKEKGRGSWGGRHHHHHPLPAAGFKKQQRKFQYGNYCKYYGYRNPSCEDGRLRVLKPEWFRGRDVLDLGCNVGHLTLSIACKWGPSRMVGLDIDSRLIHSARQNIRHYLSEELRLPPQTLEGDPGAEGEEGTTTVRKRSCFPASLTASRGPIAAPQVPLDGADTSVFPNNVVFVTGNYVLDRDDLVEAQTPEYDVVLCLSLTKWVHLNWGDEGLKRMFRRIYRHLRPGGILVLEPQPWSSYGKRKTLTETIYKNYYRIQLKPEQFSSYLTSPDVGFSSYELVATPHNTSKGFQRPVYLFHKARSPSH
B2: LARP7 (protein, UniProt Q4G0J3 1-582)
chain: METESGNQEKVMEEESTEKKKEVEKKKRSRVKQVLADIAKQVDFWFGDANLHKDRFLREQIEKSRDGYVDISLLVSFNKMKKLTTDGKLIARALRSSAVVELDLEGTRIRRKKPLGERPKDEDERTVYVELLPKNVNHSWIERVFGKCGNVVYISIPHYKSTGDPKGFAFVEFETKEQAAKAIEFLNNPPEEAPRKPGIFPKTVKNKPIPALRVVEEKKKKKKKKGRMKKEDNIQAKEENMDTSNTSISKMKRSRPTSEGSDIESTEPQKQCSKKKKKRDRVEASSLPEVRTGKRKRSSSEDAESLAPRSKVKKIIQKDIIKEASEASKENRDIEISTEEEKDTGDLKDSSLLKTKRKHKKKHKERHKMGEEVIPLRVLSKSEWMDLKKEYLALQKASMASLKKTISQIKSESEMETDSGVPQNTGMKNEKTANREECRTQEKVNATGPQFVSGVIVKIISTEPLPGRKQVRDTLAAISEVLYVDLLEGDTECHARFKTPEDAQAVINAYTEINKKHCWKLEILSGDHEQRYWQKILVDRQAKLNQPREKKRGTEKLITKAEKIRLAKTQQASKHIRFSEYD

Biological target: CDK9 (human (endogenous in SU-DIPG4)) (UniProt P50750)
Assay: co-IP; SU-DIPG4 whole cell extracts (500 ug), precleared, immunoprecipitated with 7 ug anti-CDK9 antibody or rabbit IgG, 4 h at 4 degrees, protein G magnetic beads, immunoblot; cells before and 4 h after 6 Gy IR

binding, binds:
HEXIM1 (from UniProt O94992 1-359)
B1
B2
